Data taken from patent US8703705B2, “Modified factor VIII peptides” (Apitope International NV, priority 2009, dated 2014).
Part of at least one peptide drawing is inferred or uncertain, most often the ends. No end group written: not given here.

Tests used:
[1] = tested on: lymph node cells (LNC) from FVIII+DR2+ mice; assay: Recall responses (proliferation) of lymph node cells from FVIII+DR2+ mice primed with rhFVIII/CFA; assay type: cell-based, mouse; settings: mice immunised with human factor VIII in adjuvant; restimulated in vitro with peptide; FIG. 1
[2] = tested on: FVIII-DR2+ T cell hybridoma clones; assay: FVIII peptide specificity of T cell hybridomas generated from FVIII-/- HLA-DR2+ mice (IL-2 ELISA); assay type: cell-based, mouse; settings: of 19 hybridomas specific for factor VIII; factor VIII deficient HLA-DR2 mice
Description: Factor VIII deficient mice expressing HLA-DR2 were immunised with factor VIII in adjuvant. Spleen cells from the immunised mice were restimulated in vitro with factor VIII and the resulting lymphoblasts were fused with BW5147, as described above. T-cell hybridomas were screened for their response to the 12 predicted peptides. Yet again, the majority of hybridomas responded to peptides DNIMV (SEQ ID NO: 11) and PRCLT (SEQ ID NO: 9). Of 19 hybridomas specific for factor VIII, 10 responded to DNIMV (SEQ ID NO: 11), 6 to PRCLT (SEQ ID NO: 9), 1 to PPIIA (SEQ ID NO: 4), 1 to SLYIS (SEQ ID NO: 3) and 1 to DTLLI (SEQ ID NO: 8).
The same method was followed as for (ii), except the mice were FVIII-deficient and HLA-DR2+.

[3] = tested on: FVIII-/- clones with fresh or fixed Mgar cells; assay: Apitope test: presentation by fresh or paraformaldehyde-fixed Mgar cells to hybridoma clones, IL-2 by ELISA; assay type: cell-based, mouse; settings: Mgar cells fresh or fixed with 1% paraformaldehyde, 20 μg/ml, FIG. 5
Protocol: In order to be an apitope, a peptide must be capable of binding to an MHC class I or II molecule without further antigen processing (i.e. trimming) and be presented to a T cell. In the present case, the capacity of peptides to be presented by fixed APC was investigated.
Mgar cells were either fresh or fixed with 1% paraformaldehyde. Clones were tested for antigenic specificity by culturing 100 μl of hybridoma cells with 5×10^4 Mgar cells in the presence and absence of 20 μg/ml rhFVIII or peptide epitopes overnight. Supernatants were then collected and assessed for IL-2 production by ELISA.

[4] = tested on: FVIII+DR2+ T cell hybridoma clones; assay: FVIII peptide specificity of T cell hybridomas generated from DR2+ mice (IL-2 ELISA); assay type: cell-based, mouse; settings: of the 27 hybridomas screened, 20 μg/ml peptide
Description: HLA-DR2 mice were first immunised with factor VIII in adjuvant. Spleen cells from immune mice were restimulated in vitro with factor VIII and the resulting lymphoblasts were fused with the BW5147 thymoma using polyethylene glycol.
T-cell hybridomas were selected in HAT medium and the hybridomas cloned and tested for their response to factor VIII. The hybridomas were then screened for their response to the 12 predicted peptides.
HLA-DR2+ murine MHC class II null mice were immunised as above. On day 10 draining lymph nodes were removed and lymphocytes cultured at 2.5×10^6 cells/ml, 1 ml/well in 24 well plates in the presence of 20 μg/ml rhFVIII for 3 days. Following this stimulation, lymphocytes were recovered, washed and fused with TCRα^−β^− BW fusion partner cells at a ratio of 4 BW cells to 1 lymphocyte, using polyethylene glycol as described by Nelson et al (1980) PNAS 77(5):2866. Fused cells were carefully washed and then plated out in flat bottomed 96 well plates for 2 days before the addition of HAT medium to select for T cell hybridomas. Cells were monitored for growth and approximately 10 days after fusions were performed, individual clones were selected and transferred to 24 well plates in HAT medium. […] Supernatants were then collected and assessed for IL-2 production by ELISA, with clones producing IL-2 in response to rhFVIII being considered positive for FVIII-specificity. […]

LNC from FVIII-DR2+ mice = assay: Recall responses of lymph node cells from FVIII-DR2+ mice primed with rhFVIII/CFA; assay type: cell-based, mouse; settings: FVIII-DR2+ animals immunised with factor VIII in adjuvant; FIG. 3
Description: HLA-DR2 transgenic mice were crossed with factor VIII deficient mice to create a model of haemophilia expressing the human HLA class II MHC molecule.
These FVIII-DR2+ animals were immunised with factor VIII in adjuvant. Draining lymph nodes were isolated and tested for their response to the peptide panel.
The same method was followed as for (i), except the mice were FVIII-deficient, HLA-DR2+ and murine MHC class II null.

HLA-DR2 transgenic mice = assay: Tolerisation of FVIII-specific responses in DR2+ mice by peptide pre-treatment before priming with rhFVIII/CFA; assay type: in vivo, mouse
Protocol: HLA-DR2 transgenic mice were treated with either of the two soluble peptides, or PBS as a control, prior to immunisation with factor VIII in adjuvant. Draining lymph nodes were isolated and the cells restimulated in vitro with factor VIII protein in order to assess the immune status of the mice.
HLA-DR2+ murine MHC class II null mice were treated 3 times with 100 μg of DNIMV (SEQ ID NO: 11), PRCLT (SEQ ID NO: 9) or PPIIA (SEQ ID NO: 4) dissolved in PBS, or the equivalent volume of PBS alone. Peptides were administered intraperitoneally, with 3-4 days between each dose. Following the final administration, mice were primed with rhFVIII emulsified in complete Freunds adjuvant as for (i). 10 days later, draining lymph nodes were recovered and lymphocytes subsequently cultured in vitro with rhFVIII, or each of the tolerising peptides as well as control antigens, for 72 hours before the addition of tritiated thymidine as for (i). (vi) Tolerisation of FVIII-Specific Responses in DR2+Mice by Pre-Treatment with a Combination Immunodominant FVIII Peptides

FVIII deficient mice = assay: Induction of tolerance with modified peptide in FVIII deficient mice immunised with DNIMV in CFA; lymph node restimulation in vitro; assay type: in vivo, mouse; settings: FIG. 9

Sequence	response of HLA-DR2 restricted lymph node cells to peptide (LNC proliferation) [1]	number of hybridomas responding to peptide [2]	presentation by live and fixed APC (function as apitope) [3]	number of hybridomas responding to peptide [4]	response of draining lymph node cells to peptide (LNC from FVIII-DR2+ mice)	suppression of the immune response to factor VIII (LNC recall to FVIII) (HLA-DR2 transgenic mice; 3 x 100 μg i.p. in PBS prior to priming with rhFVIII/CFA, FIG. 6)	recall of immune response in vitro (FVIII deficient mice; draining lymph nodes of mice immunised with DNIMV in CFA, stimulated in vitro)	immune response to DNIMV in tolerised mice (FVIII deficient mice; mice treated with EDNIMV, then primed with DNIMV in CFA, restimulated 10 days later with DNIMV or EDNIMV)	suppression of the immune response to whole factor VIII protein (HLA-DR2 transgenic mice; Example 12: experiment of Example 8 repeated for the modified peptide, no data given)
DNIMVTFRNQASRPY [DNIMV, DNIMVTFRNQASRPY]	respond strongly	10	presented by both live and fixed mgar cells	11	responded well	substantial suppression of the immune response to factor VIII			
EDNIMVTFRNQASR [EDNIMV, EDNIMVTFRNQASR]							able to recall an immune response	fail to mount an immune response to DNIMV	able to suppress the immune response to the whole factor VIII protein
